Data reported in article PMC9274485.
No constants are given. Whether binding was seen depends on the method and setting. Binding seen in cells or lysates may run through a third protein.

Biological target: T1, BEN domain containing 5 (BEND5), endogenous (human (endogenous in MDA-MB-231 and ZR75-1)) (UniProt Q7L4P6)
T1 sequence: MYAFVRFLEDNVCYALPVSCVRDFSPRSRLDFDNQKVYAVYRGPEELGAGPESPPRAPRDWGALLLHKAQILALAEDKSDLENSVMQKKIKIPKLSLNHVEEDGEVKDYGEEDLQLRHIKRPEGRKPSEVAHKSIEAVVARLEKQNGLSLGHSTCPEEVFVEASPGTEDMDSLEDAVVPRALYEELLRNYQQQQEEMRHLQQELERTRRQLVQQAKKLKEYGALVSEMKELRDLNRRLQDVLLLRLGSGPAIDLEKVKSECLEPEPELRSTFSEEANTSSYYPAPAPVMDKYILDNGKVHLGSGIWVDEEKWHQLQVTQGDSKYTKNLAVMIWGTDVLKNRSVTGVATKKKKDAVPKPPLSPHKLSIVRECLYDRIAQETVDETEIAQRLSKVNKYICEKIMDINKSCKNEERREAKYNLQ
Test: co-IP; endogenous proteins; MDA-MB-231 or ZR75-1 protein extract immunoprecipitated with anti-BEND5 or normal IgG, immunoblot with the indicated antibodies

binding | Substance
no binding | intracellular domain of Notch (NICD), endogenous (domain or fragment)
no binding | mastermind like transcriptional coactivator (MAML), endogenous
